Protein sequences, listed by entry. Tags and fused reporters are not part of them. Lines headed by an entry give the natural chain unless they say otherwise; changes in a name come on top.
UniProt Q96J02: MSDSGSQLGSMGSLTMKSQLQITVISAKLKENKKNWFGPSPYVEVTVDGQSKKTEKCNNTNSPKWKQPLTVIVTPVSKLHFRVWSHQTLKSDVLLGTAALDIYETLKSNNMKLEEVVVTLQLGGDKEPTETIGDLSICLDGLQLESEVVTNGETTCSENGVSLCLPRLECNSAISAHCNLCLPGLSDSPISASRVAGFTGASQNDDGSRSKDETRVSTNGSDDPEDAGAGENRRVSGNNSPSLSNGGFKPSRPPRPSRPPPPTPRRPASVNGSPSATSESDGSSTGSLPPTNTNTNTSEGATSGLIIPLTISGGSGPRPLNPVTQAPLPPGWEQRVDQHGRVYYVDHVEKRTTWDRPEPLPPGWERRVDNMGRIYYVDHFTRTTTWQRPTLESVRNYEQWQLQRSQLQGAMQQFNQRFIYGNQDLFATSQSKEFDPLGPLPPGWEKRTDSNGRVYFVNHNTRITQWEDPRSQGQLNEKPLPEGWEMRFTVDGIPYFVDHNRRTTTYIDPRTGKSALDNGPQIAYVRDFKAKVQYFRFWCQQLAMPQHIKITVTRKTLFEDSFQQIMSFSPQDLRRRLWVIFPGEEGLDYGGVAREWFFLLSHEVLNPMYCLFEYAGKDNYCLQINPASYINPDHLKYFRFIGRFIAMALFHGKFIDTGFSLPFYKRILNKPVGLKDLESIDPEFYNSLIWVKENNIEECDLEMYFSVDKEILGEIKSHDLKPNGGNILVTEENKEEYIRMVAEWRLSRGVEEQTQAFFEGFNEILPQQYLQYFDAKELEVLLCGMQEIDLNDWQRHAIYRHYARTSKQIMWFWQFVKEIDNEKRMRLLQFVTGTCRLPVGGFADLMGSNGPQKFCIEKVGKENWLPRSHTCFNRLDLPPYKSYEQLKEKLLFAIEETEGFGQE
UniProt P32121: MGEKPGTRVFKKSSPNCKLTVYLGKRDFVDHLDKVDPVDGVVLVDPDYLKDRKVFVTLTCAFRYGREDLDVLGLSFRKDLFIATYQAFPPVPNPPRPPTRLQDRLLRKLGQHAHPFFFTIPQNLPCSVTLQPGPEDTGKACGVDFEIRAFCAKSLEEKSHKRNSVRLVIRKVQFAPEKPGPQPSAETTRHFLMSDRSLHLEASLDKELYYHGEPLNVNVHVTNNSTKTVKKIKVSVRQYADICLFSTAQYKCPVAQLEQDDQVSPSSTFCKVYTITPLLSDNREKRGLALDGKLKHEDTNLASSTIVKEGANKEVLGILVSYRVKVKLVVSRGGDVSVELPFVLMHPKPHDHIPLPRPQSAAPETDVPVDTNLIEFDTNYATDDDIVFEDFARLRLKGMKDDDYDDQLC

According to paper PMC5841288:

Molecular target: Itch (UniProt Q96J02)
Assay: co-IP; HEK293T cells co-transfected with the indicated plasmids, with or without Itch

binding: binds
Substance: β-arrestin2 (transfected, Fig. 5e) (from UniProt P32121 1-409)

No constants are given. Whether binding was seen depends on the method and setting. Binding seen in cells or lysates may run through a third protein. Binding can be weak; no strength is given.
